Hit rate of the full screen: of about 330,000 compounds, about 7,700 (2.3%) were called active. This list was built around the results that the source calls inconclusive (neither active nor inactive); the mix of calls is not that of the screen. The call rests on the fitted dose curve; in most records, active means well fitted inhibition curve with a large enough effect; inconclusive means small, poorly fitted or top-dose-only effect, or effect the other way; inactive means flat fitted curve, though single readings scatter. A potency beside an inconclusive call is a rough fit, not a confirmed value.
Experiment: qHTS screen for small molecules that inhibit ELG1-dependent DNA repair in human embryonic kidney (HEK293T) cells expressing luciferase-tagged ELG1; further: nearly all actives have a fitted effect of over 55% in size
Settings: HEK293T ELG1-luciferase reporter, luminescence, 16 h, DNA damage induced by 5-fluorouridine; series mostly up to 46.1 µM
Method in brief: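 Reporter activity after DNA damage by 5-fluorouridine is monitored. Compound-treated cells incubate 16 hr at 37 °C, then ONE-Glo is added for 30 min before luminescence reading.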
Potency means the concentration at half of the fitted maximal effect.

Structure (SMILES)	Potency
COc1cc(/C=C2\SC(=S)N(Nc3ncc(C(F)(F)F)cc3Cl)C2=O)cc(OC)c1OC	inconclusive: 32.6 µM [inhibitor, partial curve, poor fit]
CN(Cc1ccccc1)c1nc2c(c(=O)n(C)c(=O)n2C)n1CCSc1ncccn1	inconclusive: 20.6 µM [inhibitor, single point]
COc1ccccc1N1CCN(C(=O)c2cn(C)c3ccc(S(=O)(=O)N4CCOCC4)cc3c2=O)CC1	inactive
Cc1ccc(C(=O)OCC(=O)NCc2cccs2)cc1S(=O)(=O)N1CCOCC1	inconclusive: 14.6 µM [activator, partial curve, poor fit]
COc1ccc(-c2nnc(N3CCC(C)CC3)c3ccccc23)cc1	inactive
COCCNc1nc2c(c(=O)n(C)c(=O)n2C)n1Cc1cccc(C)c1	active: 20.6 µM
O=S(=O)(c1cccc(F)c1)N1CCN(Cc2cc3c(cc2Br)OCCO3)CC1	inconclusive: 13 µM [inhibitor, partial curve]
O=C(COC(=O)c1cccc([N+](=O)[O-])c1)NCc1cccs1	inactive
CCCCCC1CCC(c2n[nH]c(=S)n2C)CC1 (stereo unspecified)	inconclusive: 23.1 µM [inhibitor, single point]
COCCCNC(=O)CCc1c(C)nc2c(c(C)nn2-c2ccccc2)c1C	inactive
C=C(C)COc1ccc(-c2nc(N)ncc2-c2ccc(Br)cc2)c(O)c1	inactive
CCCOc1ccc(S(=O)(=O)NCCCN2CCOCC2)c2ccccc12	inactive
CC(C)(C)c1cc(C(F)(F)F)n2ncc(-c3ccccc3)c2n1	inactive
CCOc1ncccc1C(=O)OCC(=O)Nc1cc(C(C)(C)C)ccc1OC	inconclusive: 6.51 µM [inhibitor, partial curve, poor fit]
Cc1ccc(NC(=O)CN2C(=O)COc3ccc(C)cc32)nc1	inactive
CN(C)S(=O)(=O)N1CCC(Oc2ccc(C(=O)NC3Cc4ccccc4C3)cc2)CC1	inactive
O=C(NCCS(=O)(=O)N1CCC2(CC1)OCCO2)c1ccccc1	inconclusive: 25.9 µM [activator, single point]
O=C(CSc1nc(O)c(Cc2ccccc2)c(=O)[nH]1)c1ccccc1	inconclusive: 29.1 µM [activator, single point]
C=CCN1C(=O)CSc2ccc(C(=O)NCCC3=CCCCC3)cc21	inconclusive: 20.6 µM [inhibitor, single point]
CCCCCCCCCC(=O)N/N=C/c1ccc(C)s1	inconclusive: 20.6 µM [activator, single point]
CCC(CC)C(=O)Nc1cc(C(=O)NCCc2ccccc2)ccc1Cl	inconclusive: 13 µM [activator, partial curve, poor fit]
CCOC(=O)c1nnn(-c2nonc2OC)c1-c1ccccc1	inconclusive: 20.6 µM [inhibitor, single point]
Cc1cccc(NC(=O)C2COc3ccccc3O2)n1 (stereo unspecified)	inconclusive: 11.6 µM [activator, partial curve]
Cc1ccc(-c2nn(-c3ccccc3)cc2/C=N/NS(=O)(=O)c2ccccc2)cc1	inconclusive: 18.4 µM [activator, single point]

Structure (SMILES)	Potency
CN1CCN(c2ccc(Cl)cc2NC(=O)c2ccc(S(=O)(=O)N3CCCCCC3)cc2)CC1	inactive
CCCCNC(=O)[C@]1(C)CCC[C@@]2(C)C3CC[C@@]4(C)C[C@]3(CCC21)CC4=O (stereo partly specified)	inconclusive: 29.1 µM [inhibitor, single point]
O=C(NNC(=O)c1ccc[nH]1)Nc1cccc(C(F)(F)F)c1	inconclusive: 20.6 µM [activator, single point]
O=C(Nc1cccc(C(=O)O)c1)/C(=C/c1ccc([N+](=O)[O-])cc1)NC(=O)c1ccccc1	inactive
CSc1ccc(N/N=C(/C#N)S(=O)(=O)C(C)(C)C)cc1	active: 18.3 µM
O=C(c1ccco1)N1CCN(S(=O)(=O)c2cccc(Cl)c2)CC1	inactive
C=CCc1cccc(/C=N/NC(=O)c2ccc3nc[nH]c3c2)c1O	inconclusive: 29.1 µM [inhibitor, single point]
Cc1cc(C)nc(SCC(=O)c2ccc(C)c(C)c2)n1	inconclusive: 0.411 µM [inhibitor, partial curve]
CC(Oc1cccc(Cl)c1)C(=O)Nc1ccc(N2CCOCC2)cc1N1CCOCC1 (stereo unspecified)	inconclusive: 25.9 µM [inhibitor, single point]
Nc1nccc(/C=C/c2ccc(Cl)cc2)n1	inconclusive: 9.2 µM [activator, partial curve]
COc1ccccc1Nc1nnc(SCC(=O)NC2CC2)s1	inconclusive: 20.6 µM [activator, single point]
COc1cccc(S(=O)(=O)Nc2ccc3c(c2)OCCO3)c1	inactive
O=C1CN(C(=O)COC(=O)c2ccc(Cl)c(S(=O)(=O)N3CCCCC3)c2)c2ccccc2N1	inactive
CN(Cc1c(F)cccc1Cl)C(=O)CNC(=O)c1ccc2c(c1)OCO2	inconclusive: 20.6 µM [activator, partial curve]
Cc1ccc([C@@H]2CC=C(C(=O)O)[C@H](c3cccc(F)c3)N2S(=O)(=O)c2ccccc2C)cc1	inactive
C/C(=N\NC(=O)c1ccc2c(c1)OCCO2)c1ccccc1	inconclusive: 0.73 µM [activator, full curve]
CCOC(=O)C(CCC(=O)O)(CCC(C)C)c1csc(N)n1 (stereo unspecified)	inactive
O=C(Nc1ccc2c(c1)C(=O)N(CC1CCCO1)C2=O)c1ccc(Cl)c(Cl)c1 (stereo unspecified)	active: 9.2 µM
Cc1ccccc1NS(=O)(=O)c1cccc2nsnc12	inactive
O=C(NNc1c2ccccc2nc2ccccc12)c1ccc(O)cc1	inconclusive: 16.4 µM [inhibitor, single point]
CC1CCN(S(=O)(=O)c2cn(CC(=O)N3CCN(c4cccc(C(F)(F)F)c4)CC3)cn2)CC1	inconclusive: 5.17 µM [inhibitor, partial curve]
COc1ccc(NS(=O)(=O)c2cc(NC(=O)C3CC3)ccc2N2CCCCC2)cc1	inconclusive: 29.1 µM [inhibitor, single point]
COc1ccccc1OCc1ccc(C(=O)N2N=C(C(F)F)CC2(O)C(F)F)o1 (stereo unspecified)	inactive
O=C(Cc1ccccc1)Nc1ccccc1C(=O)O	inconclusive: 25.9 µM [activator, single point]

Ordered by count of non-hydrogen atoms (largest number first): 3 of the compounds above
Structure (SMILES)	Potency
CN1CCN(c2ccc(Cl)cc2NC(=O)c2ccc(S(=O)(=O)N3CCCCCC3)cc2)CC1	inactive
CCCCNC(=O)[C@]1(C)CCC[C@@]2(C)C3CC[C@@]4(C)C[C@]3(CCC21)CC4=O (stereo partly specified)	inconclusive: 29.1 µM [inhibitor, single point]
O=C(NCCS(=O)(=O)N1CCC2(CC1)OCCO2)c1ccccc1	inconclusive: 25.9 µM [activator, single point]

Continuation.

Structure (SMILES)	Potency
Cc1ccc(-n2cc(CN3CCC(O)(c4ccccn4)CC3)c(-c3ccc(F)cc3)n2)cc1	active: 18.3 µM
CCOc1ccc(S(=O)(=O)NCc2ccccn2)cc1NC(=O)c1ccccc1	inconclusive: 4.61 µM [activator, single point]
O=C(CN1C(=O)COc2ccccc21)NCCN1CCCC1	inactive
CCOc1cc(N2CCOCC2)c(OCC)cc1NC(=O)Cc1ccccc1OC	inconclusive: 29.1 µM [inhibitor, single point]
CCc1ccccc1OCC(=O)Nc1ccc(C)c(S(=O)(=O)N2CCCCCC2)c1	active: 20.6 µM
O=C(CSc1ncn[nH]1)Nc1nnc(-c2ccccc2)s1	inconclusive: 20.6 µM [activator, partial curve]
CCOC(=O)CC1C(=O)NCCN1C(=O)c1ccc(Cl)cc1Cl (stereo unspecified)	inactive
COc1ccc2c(c1)CCc1cc(C(=O)N3CCN(c4ccc(N5CCOCC5)nn4)CC3)sc1-2	active: 20.6 µM
Cc1ccc(NC(=O)C2CC3CCC2C3)c(Br)c1 (stereo unspecified)	inconclusive: 23.1 µM [activator, partial curve]
COc1cc(N2CCCC2)c(OC)cc1/C=C(/C#N)c1cccc(F)c1	inconclusive: 16.4 µM [inhibitor, partial curve, poor fit]
O=C(c1cc2nc(-c3ccc(Cl)cc3)cc(C(F)(F)F)n2n1)N1CCOCC1	inactive
CCOC(=O)c1ccc(NC(=S)NC(=O)C2CCCC2)cc1	inactive
Cc1cccc(C(=O)Nc2nnc(SCC(=O)Nc3ccc4c(c3)oc3ccccc34)s2)c1	inconclusive: 13 µM [activator, partial curve, poor fit]
Cc1nc(NC(=S)NC(=O)c2ccccc2)sc1C(=O)N(C)C	inconclusive: 29.1 µM [activator, single point]
CCc1ccccc1NC(=O)CN1CCN(C(=O)CCC(=O)N2CCC(c3ccccc3)=N2)CC1	inconclusive: 20.6 µM [inhibitor, single point]
COc1ccccc1-c1sc2ccccc2c1C#CC1(O)CCCCC1	inconclusive: 11.6 µM [activator, partial curve, poor fit]
CSCC[C@H](NC(=O)c1cccc(S(=O)(=O)N2CCCCCC2)c1)c1nc2ccccc2[nH]1	active: 23.1 µM
Cc1ccccc1NC(=S)N/N=C1\CC(C)(C)Oc2ccc(O)cc21	inconclusive: 29.1 µM [inhibitor, single point]
CCn1c(SCC(=O)Nc2nccs2)nnc1-c1ccc(S(=O)(=O)N2CCCCCC2)cc1	active: 20.6 µM
CN(C)C(=S)N=Nc1[nH]c2ccccc2c1O	inconclusive: 29.1 µM [activator, single point]
CC1=CC(C)[C@H](/C=N/n2c(=O)[nH]c3c([nH]c4ccc(Br)cc43)c2=O)C(C)C1 (stereo partly specified)	inconclusive: 32.6 µM [inhibitor, single point]
COc1ccc2nc3oc(C(=O)N4CCN(c5cccc(Cl)c5)CC4)cc3cc2c1	inconclusive: 20.6 µM [inhibitor, single point]
O=C(Nc1ccc(Br)c2cccnc12)c1ccc(Cn2cc(Cl)cn2)o1	inactive

Source: PubChem BioAssay AID504467 (National Center for Advancing Translational Sciences (NCATS), 2011)
